From US20080119428A1
Results are given in words; binding and its absence hold for the method and conditions named. In cells and extracts the contact can be indirect. Some results given as binding are weak or reduced against the parent protein; the word gives no strength. Sequences can lack the tags named with a protein.

Amino acid sequences for entries named in this document (tags omitted).
UniProt P07814: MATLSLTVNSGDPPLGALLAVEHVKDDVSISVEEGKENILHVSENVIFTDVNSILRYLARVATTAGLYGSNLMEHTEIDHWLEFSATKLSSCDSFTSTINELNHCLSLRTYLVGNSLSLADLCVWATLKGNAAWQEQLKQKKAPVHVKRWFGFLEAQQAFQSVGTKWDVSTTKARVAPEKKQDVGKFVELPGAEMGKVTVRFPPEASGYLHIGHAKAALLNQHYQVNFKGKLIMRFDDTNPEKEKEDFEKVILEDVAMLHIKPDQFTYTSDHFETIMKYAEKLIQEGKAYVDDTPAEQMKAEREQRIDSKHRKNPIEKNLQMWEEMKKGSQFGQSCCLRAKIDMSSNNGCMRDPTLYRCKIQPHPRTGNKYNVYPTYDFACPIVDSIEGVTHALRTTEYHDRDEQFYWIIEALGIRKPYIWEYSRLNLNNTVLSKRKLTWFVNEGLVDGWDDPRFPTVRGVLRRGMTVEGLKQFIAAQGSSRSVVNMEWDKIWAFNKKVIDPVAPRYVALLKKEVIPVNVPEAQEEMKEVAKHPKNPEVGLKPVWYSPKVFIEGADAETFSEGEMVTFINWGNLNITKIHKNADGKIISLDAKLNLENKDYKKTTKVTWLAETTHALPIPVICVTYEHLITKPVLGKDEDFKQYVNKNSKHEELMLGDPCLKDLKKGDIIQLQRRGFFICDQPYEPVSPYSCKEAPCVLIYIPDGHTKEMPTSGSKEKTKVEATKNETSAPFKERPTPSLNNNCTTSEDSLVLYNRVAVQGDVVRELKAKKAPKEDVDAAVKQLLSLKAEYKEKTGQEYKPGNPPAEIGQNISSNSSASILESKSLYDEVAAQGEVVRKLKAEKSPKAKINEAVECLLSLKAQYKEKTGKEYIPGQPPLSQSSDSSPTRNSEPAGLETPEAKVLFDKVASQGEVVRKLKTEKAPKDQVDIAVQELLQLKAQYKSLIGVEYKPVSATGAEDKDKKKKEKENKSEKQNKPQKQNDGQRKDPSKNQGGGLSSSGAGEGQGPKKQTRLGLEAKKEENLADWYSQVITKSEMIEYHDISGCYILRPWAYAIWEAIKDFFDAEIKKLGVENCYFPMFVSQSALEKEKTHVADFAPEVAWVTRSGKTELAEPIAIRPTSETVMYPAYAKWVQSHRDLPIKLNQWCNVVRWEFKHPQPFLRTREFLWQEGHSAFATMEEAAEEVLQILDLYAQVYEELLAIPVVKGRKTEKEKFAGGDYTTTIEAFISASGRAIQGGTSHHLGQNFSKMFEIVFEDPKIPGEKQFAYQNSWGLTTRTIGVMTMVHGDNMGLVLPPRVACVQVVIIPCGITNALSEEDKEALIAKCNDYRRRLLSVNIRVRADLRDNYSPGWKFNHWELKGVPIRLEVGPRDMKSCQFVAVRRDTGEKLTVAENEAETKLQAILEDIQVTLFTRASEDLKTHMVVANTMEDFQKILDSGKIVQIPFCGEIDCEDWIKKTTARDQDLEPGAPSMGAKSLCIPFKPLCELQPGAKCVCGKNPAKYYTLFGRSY

Target: FLAG-tagged EPRS (UniProt P07814)
Assay: reciprocal co-immunoprecipitation and western blot, both proteins transfected into LC319 cells

B1: myc-tagged-IMS-E21 (URLC8) (enzyme)
chain: MILNSLSLCYHNKLILAPMVRVGTLPMRLLALDYGADIVYCEELIDLKMIQCKRVVNEVLSTVDFVAPDDRVVFRTCEREQNRVVFQMGTSDAERALAVARLVENDVAGIDVNMGCPKQYSTKGGMGAALLSDPDKIEKILSTLVKGTRRPVTCKIRILPSLEDTLSLVKRIERTGIAAIAVHGRKREERPQHPVSCEVIKAIADTLSIPVIANGGSHDHIQQYSDIEDFRQATAASSVMVARAAMWNPSIFLKEGLRPLEEVMQKYIRYAVQYDNHYTNTKYCLCQMLREQLESPQGRLLHAAQSSREICEAFGLGAFYEETTQELDAQQARLSAKTSEQTGEPAEDTSGVIKMAVKFDRRAYPAQITPKMCLLEWCRREKLAQPVYETVQRPLDRLFSSIVTVAEQKYQSTLWDKSKKLAEQAAAIVCLRSQGLPEGRLGEESPSLHKRKREAPDQDPGGPRAQELAQPGDLCKKPFVALGSGEESPLEGWLDEESILKQEHHHHHH
Question: Which binding does the source give for B1 here?
Answer: binds
